# PubChem BioAssay (EPA / NIEHS)
# The chains behind the UniProt entries cited, without tags or fusion partners. Where a name states a change or a piece, a line headed by the entry shows the natural chain unless it says otherwise.
# UniProt P08219: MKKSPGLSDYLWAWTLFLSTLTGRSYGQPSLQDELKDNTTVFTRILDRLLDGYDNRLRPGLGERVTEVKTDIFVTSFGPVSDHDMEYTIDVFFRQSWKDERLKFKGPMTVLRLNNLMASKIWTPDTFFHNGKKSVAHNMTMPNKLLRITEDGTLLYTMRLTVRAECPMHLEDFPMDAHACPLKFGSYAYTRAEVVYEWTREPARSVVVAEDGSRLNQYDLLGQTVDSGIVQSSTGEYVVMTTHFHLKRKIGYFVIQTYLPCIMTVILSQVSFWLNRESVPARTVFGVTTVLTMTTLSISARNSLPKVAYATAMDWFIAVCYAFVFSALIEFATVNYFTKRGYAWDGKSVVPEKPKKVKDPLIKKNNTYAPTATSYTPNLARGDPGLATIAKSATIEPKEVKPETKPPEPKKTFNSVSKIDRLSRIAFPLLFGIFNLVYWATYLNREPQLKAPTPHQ
# UniProt Q9UNQ0: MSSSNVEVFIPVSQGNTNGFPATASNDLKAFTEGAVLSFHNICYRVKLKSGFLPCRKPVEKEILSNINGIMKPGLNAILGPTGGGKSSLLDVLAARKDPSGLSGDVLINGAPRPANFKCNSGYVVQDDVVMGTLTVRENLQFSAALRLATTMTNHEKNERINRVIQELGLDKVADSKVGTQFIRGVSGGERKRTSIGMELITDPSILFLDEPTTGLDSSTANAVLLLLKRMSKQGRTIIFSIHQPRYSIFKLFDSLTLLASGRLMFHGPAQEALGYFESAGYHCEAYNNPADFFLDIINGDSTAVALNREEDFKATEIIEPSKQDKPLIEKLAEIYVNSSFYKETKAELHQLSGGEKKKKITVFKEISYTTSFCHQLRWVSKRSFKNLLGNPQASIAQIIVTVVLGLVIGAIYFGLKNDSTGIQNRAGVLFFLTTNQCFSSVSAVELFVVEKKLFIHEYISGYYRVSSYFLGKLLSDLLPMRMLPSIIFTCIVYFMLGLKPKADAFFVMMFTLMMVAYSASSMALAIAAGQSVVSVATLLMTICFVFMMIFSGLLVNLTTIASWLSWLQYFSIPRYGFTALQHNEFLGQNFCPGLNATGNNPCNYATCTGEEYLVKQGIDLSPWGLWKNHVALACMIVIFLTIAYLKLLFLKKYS
# UniProt P33261, whole entry, looked up: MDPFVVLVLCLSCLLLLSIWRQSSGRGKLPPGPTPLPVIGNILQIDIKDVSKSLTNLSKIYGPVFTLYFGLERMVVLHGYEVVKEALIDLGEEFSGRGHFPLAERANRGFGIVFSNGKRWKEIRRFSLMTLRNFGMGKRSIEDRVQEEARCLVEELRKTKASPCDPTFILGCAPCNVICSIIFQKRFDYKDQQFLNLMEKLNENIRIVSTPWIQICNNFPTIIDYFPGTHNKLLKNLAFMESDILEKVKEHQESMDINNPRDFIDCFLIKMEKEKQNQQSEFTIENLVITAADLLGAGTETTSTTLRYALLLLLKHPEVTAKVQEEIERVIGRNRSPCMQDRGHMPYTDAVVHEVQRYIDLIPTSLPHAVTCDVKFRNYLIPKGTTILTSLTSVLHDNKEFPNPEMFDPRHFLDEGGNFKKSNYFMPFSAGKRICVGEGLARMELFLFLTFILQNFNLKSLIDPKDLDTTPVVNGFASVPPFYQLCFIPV
# UniProt P04406: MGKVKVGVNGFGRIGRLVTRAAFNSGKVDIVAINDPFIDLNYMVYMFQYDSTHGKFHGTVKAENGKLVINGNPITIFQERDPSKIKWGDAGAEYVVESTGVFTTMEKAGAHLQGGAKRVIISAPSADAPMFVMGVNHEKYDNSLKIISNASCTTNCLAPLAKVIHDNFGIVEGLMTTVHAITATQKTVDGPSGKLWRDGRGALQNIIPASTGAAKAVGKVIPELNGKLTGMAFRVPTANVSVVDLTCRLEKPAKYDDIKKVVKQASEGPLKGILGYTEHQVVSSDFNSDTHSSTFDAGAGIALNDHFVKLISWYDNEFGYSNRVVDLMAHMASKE
# UniProt P17948, whole entry, looked up: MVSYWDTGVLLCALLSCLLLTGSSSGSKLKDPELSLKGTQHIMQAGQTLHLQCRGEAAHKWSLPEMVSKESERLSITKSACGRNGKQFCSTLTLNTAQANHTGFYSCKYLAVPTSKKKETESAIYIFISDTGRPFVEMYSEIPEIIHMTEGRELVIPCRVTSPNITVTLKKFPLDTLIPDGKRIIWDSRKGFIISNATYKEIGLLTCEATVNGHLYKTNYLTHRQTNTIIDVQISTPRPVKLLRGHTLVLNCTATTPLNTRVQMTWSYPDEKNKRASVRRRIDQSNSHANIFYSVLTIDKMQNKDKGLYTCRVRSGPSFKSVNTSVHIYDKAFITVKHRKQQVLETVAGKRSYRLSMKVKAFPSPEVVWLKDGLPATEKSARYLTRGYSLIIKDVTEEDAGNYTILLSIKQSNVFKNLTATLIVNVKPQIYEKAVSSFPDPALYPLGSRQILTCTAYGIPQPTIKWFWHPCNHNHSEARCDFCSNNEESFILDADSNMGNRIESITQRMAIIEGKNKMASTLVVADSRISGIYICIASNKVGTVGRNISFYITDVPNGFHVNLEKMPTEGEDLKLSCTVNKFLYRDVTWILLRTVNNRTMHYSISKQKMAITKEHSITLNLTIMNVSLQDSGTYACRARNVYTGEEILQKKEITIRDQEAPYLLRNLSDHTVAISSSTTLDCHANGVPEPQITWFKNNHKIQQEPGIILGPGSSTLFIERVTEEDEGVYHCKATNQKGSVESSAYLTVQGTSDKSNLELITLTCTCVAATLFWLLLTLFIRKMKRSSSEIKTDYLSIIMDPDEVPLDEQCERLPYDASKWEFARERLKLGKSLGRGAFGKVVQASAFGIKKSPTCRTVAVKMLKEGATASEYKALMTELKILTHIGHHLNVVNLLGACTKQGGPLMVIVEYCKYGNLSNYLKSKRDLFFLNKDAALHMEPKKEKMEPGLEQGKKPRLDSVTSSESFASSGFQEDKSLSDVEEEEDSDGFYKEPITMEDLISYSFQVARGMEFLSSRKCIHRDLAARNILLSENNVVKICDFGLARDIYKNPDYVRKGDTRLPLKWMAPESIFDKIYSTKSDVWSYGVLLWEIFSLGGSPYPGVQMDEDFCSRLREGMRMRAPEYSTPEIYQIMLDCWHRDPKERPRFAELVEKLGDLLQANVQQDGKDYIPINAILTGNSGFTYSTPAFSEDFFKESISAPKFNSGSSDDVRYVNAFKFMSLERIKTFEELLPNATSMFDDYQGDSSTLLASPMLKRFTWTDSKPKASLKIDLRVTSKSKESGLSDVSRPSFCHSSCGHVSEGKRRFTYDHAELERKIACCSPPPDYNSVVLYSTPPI
# UniProt P15204: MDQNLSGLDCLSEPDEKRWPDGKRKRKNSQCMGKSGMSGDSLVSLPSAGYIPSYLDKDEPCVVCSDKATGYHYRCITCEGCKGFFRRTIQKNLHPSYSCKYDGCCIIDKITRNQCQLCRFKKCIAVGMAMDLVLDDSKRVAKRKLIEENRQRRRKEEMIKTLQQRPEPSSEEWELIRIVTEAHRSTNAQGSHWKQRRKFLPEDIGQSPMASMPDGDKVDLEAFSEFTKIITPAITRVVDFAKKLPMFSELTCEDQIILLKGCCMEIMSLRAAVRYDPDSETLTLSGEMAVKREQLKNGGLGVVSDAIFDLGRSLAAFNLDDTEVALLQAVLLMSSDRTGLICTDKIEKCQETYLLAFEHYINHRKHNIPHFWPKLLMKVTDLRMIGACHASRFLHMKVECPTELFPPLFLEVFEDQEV
# UniProt P10275: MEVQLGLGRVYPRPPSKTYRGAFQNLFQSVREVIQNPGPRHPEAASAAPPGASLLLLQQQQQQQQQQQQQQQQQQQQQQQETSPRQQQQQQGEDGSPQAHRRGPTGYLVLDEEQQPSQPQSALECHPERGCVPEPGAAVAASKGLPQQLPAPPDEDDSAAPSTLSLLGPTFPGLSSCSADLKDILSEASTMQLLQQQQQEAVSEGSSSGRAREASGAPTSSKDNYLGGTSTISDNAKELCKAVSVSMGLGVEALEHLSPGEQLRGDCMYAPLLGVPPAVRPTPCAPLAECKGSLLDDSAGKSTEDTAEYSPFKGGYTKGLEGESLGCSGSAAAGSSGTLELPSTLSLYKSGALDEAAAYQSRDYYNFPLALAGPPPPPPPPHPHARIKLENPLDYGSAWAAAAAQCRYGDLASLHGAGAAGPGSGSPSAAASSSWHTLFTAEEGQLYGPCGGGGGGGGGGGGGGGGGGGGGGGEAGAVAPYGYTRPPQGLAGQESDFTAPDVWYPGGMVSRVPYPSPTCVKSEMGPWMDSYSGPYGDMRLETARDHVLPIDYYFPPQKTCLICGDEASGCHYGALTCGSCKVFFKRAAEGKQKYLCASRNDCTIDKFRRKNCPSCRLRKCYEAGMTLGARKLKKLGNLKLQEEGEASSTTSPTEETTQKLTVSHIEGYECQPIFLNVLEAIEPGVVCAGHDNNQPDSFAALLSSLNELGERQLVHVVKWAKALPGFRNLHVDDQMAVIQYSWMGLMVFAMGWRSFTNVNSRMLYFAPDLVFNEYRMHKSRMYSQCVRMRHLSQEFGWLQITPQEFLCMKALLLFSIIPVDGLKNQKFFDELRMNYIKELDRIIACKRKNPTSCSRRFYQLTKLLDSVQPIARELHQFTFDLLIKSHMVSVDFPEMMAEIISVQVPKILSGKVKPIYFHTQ
# The inconclusive results got no clear call from the source; some entries with a clear call stand among them for comparison. Where the call is inconclusive, the potency comes from a doubtful curve fit. The source holds several records for some structures; these can differ, active in one and inactive in another. Calls of active or inactive are those of the source. How the source made its calls: active means hit-call score of the fitted dose curve at least 0.9, where 1 is the maximum; inconclusive means response in the unintended direction; inactive means score below 0.9. Peptide text beside a SMILES is read from it.
# Columns and labels:
# [1] = STM_H9_NormalizedViability: Cytotoxicity Assessment at 120 hours in the Stemina devTOX quickPredict H9 human embryonic stem cell (hESC)-based Assay (AID 2283784)
# In short: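 Pluripotent H9 hESCs were exposed, with chemical and media replaced every 24 h. Viability was read by CellTiter-Fluor fluorescence, background-corrected and normalized to the 0.1% DMSO neutral control per plate. Loss of signal was fitted.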
# [2] = CCTE_Shafer_MEA_dev_bursting_electrodes_number: CCTE's Neural Network Formation Assay for Number of Bursting Electrodes, Shafer Lab (AID 2284043);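 further: potency is for loss of bursting electrodes relative to DMSO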
# In short: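 Primary rat cortical neurons were cultured on PEI-coated 48-well MEA plates (16 electrodes/well) and exposed from plating through day 12, with compound renewed at feeds on DIV 5 and 9. Electrodes bursting ≥1 per 2 min were counted on DIV 5, 7, 9, 12; trapezoidal AUC taken.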
# [3] = CCTE_Shafer_MEA_dev_AB: CCTE's Alamar Blue Assay for Cytotoxicity in the Neural Network Formation Assay, Shafer Lab (AID 2284083);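 further: resazurin reduction fluorescence as viability of cultured neurons; twelve days of exposure from plating with re-dosing on DIV 5 and 9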
# In short: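 Cytotoxicity companion to the developmental MEA: primary rat cortical neurons, 12-day exposure starting day 0, compound refreshed DIV 5 and 9; resazurin fluorescence, fitted against DMSO vehicle.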
# [4] = CCTE_Mundy_HCI_hNP1_CellTiter: CCTE's Cell Titer-Glo 2 Assay in human neuroprogenitor cells for Viability, Mundy Lab (AID 2284241);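 on AC50: a hit is a drop in ATP luminescence versus DMSO meaning reduced viability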
# In short: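 Measures ATP content in human neural progenitors derived from WA09 embryonic cells. Read-out at 26.5 hours after dosing, with DMSO serving as the negative control and baseline.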
# [5] = CCTE_Simmons_CellTiterGLO_HEK293T: Viability Assessment in CCTE's Assays for Thyroperoxidase (TPO) Inhibition, Simmons Lab (AID 2283665);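 on AC50: cells exposed to compound for 24 h before readout; actives reduce ATP signal below DMSO vehicle meaning cytotoxicity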
# In short: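 HEK293T cells in DMEM with 1% FBS, dosed 24 h at 37C with 8 concentrations, 5 nM–87.5 uM final, 0.5% DMSO. ATP measured by CellTiter Glo luminescence; loss of signal vs DMSO, three biological replicates.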
# [6] = molecular target: bovine Gamma-Aminobutyric Acid Type A Receptor Agonist (GABAR Agonist), GABRA1 (gene 780973) (UniProt P08219); test: NVS_LGIC_bGABAR_Agonist: NovaScreen (NVS) Ligand-Gated Ion Channel Assay for bovine Gamma-Aminobutyric Acid Type A Receptor Agonist (GABAR Agonist) (AID 2283338)
# In short: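 Radioligand binding to bovine cerebellar membranes in agonist format, read by filter-based scintillation counting after 1 h. Primary screen in duplicate at 25 uM, with actives followed in concentration series. Gain of signal versus DMSO.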
# [7] = read-out: Broad substrate specificity ATP-binding cassette transporter ABCG2 (Homo sapiens) (UniProt Q9UNQ0); test: CLD_ABCG2_6hr: CellzDirect (CLD) Gene Expression Assay for ABC Transporter (ABCG2) at 6 hours (AID 2283660)
# In short: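 Primary human hepatocytes dosed daily with chemicals at multiple concentrations (0.2% DMSO vehicle), harvested 6 h after dosing. ABCG2 mRNA induction read by quantitative nuclease protection assay (qNPA) chemiluminescence; gain of signal fitted against DMSO baseline.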
# [8] = read-out: Cytochrome P450 2C19 (Homo sapiens) (UniProt P33261); test: CLD_CYP2C19_6hr: CellzDirect (CLD) Gene Expression Assay for xenobiotic metabolism (CYP2C19) at 6 hours (AID 2283678)
# In short: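 Primary human hepatocytes from two donor preparations were dosed daily, with 0.2% DMSO as vehicle, and harvested 6 h after dosing. CYP2C19 mRNA induction was measured by qNPA chemiluminescence and fitted as gain of signal against DMSO.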
# [9] = read-out: Glyceraldehyde-3-phosphate dehydrogenase (Homo sapiens) (UniProt P04406); test: CLD_GAPDH_6hr: CellzDirect (CLD) Gene Expression Assay for Baseline Control (Glyceraldehyde 3-phosphate dehydrogenase) at 6 hours (AID 2283681)
# In short: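 Primary human hepatocytes from two donor preparations, dosed at multiple concentrations with 0.2% DMSO vehicle; GAPDH mRNA measured 6 h after dosing by chemiluminescent quantitative nuclease protection assay (qNPA) on denatured lysates. Serves as background control; cytotoxicity annotated by morphology.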
# [10] = read-out: Broad substrate specificity ATP-binding cassette transporter ABCG2 (Homo sapiens) (UniProt Q9UNQ0); test: CLD_ABCG2_24hr: CellzDirect (CLD) Gene Expression Assay for ABC Transporter (ABCG2) at 24 hours (AID 2283685);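 on AC50: AC50 is for induction meaning signal gain over DMSO vehicle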
# In short: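 Primary human hepatocytes were dosed daily with ToxCast chemicals at multiple concentrations (vehicle 0.2% DMSO). ABCG2 mRNA was measured at 24 h by qNPA chemiluminescence; induction was scored as gain of signal versus DMSO.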
# [11] = read-out: Broad substrate specificity ATP-binding cassette transporter ABCG2 (Homo sapiens) (UniProt Q9UNQ0); test: CLD_ABCG2_48hr: CellzDirect (CLD) Gene Expression Assay for ABC Transporter (ABCG2) at 48 hours (AID 2283704);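 on AC50: potency for induction of ABCG2 mRNA above the DMSO baseline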
# In short: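 Primary human hepatocytes from two donors, dosed daily for 2 days, 0.2% DMSO vehicle, several concentrations. ABCG2 mRNA at 48 h by qNPA chemiluminescence, gain fitted versus DMSO; cytotoxicity flagged by morphology.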
# [12] = read-out: Glyceraldehyde-3-phosphate dehydrogenase (Homo sapiens) (UniProt P04406); test: CLD_GAPDH_48hr: CellzDirect (CLD) Gene Expression Assay for Baseline Control (Glyceraldehyde 3-phosphate dehydrogenase) at 48 hours (AID 2283706)
# In short: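 Primary human hepatocytes dosed daily for two days with fresh chemical at multiple concentrations, 0.2% DMSO vehicle; GAPDH mRNA measured at 48 h by quantitative nuclease protection assay with chemiluminescence, fitted upward relative to DMSO as background control.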
# [13] = read-out: HMG-CoA synthase (HMGCS2), HMGCS2 (gene 3158); test: CLD_HMGCS2_48hr: CellzDirect (CLD) Gene Expression Assay for HMG-CoA synthase (HMGCS2) at 48 hours (AID 2283711)
# In short: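 Primary human hepatocytes from two donors dosed daily for two days, 0.2% DMSO vehicle. HMGCS2 mRNA measured 48 h after dosing by quantitative nuclease protection assay with chemiluminescent read-out; induction fitted relative to DMSO, cytotoxicity flagged by microscopy.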
# [14] = molecular target: human Vascular Endothelial Growth Factor Receptor 1 (VEGFR1), FLT1 (gene 2321) (UniProt P17948); test: NVS_ENZ_hVEGFR1: NovaScreen (NVS) Enzymatic Assay for human Vascular Endothelial Growth Factor Receptor 1 (VEGFR1) (AID 2283226)
# In short: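 Cell-free assay of recombinant human VEGFR1 kinase with substrate, measured 1 h after dosing; fluorescence with electrophoretic mobility-shift separation of substrate and product, referenced to DMSO; primary screen at 25 uM in duplicate, actives then run in concentration series.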
# [15] = molecular target: frog Thyroid hormone Receptor alpha (TRa), thra-a (gene 397942) (UniProt P15204); test: ATG_frTRa_XSP2: Attagene TRANS-FACTORIAL Multi-Species (XSP2) HepG2 Assay for frog Thyroid hormone Receptor alpha (TRa) (AID 2283839);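 on AC50: AC50 reflects induction of frog TRa-driven reporter mRNA above DMSO baseline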
# In short: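 HepG2 cells transiently transfected with multiplexed GAL4-UAS reporter units expressing chimeric frog TRα-Gal4; reporter mRNA read 24 h after dosing by RT-PCR, FAM-labelled primer extension, HpaI digest and capillary electrophoresis. Gain of signal fitted versus DMSO.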
# [16] = Tanguay_ZF_120hpf_SNOU_legacy: (Legacy) Oregon State University Tanguay Lab 120 Hour Post-fertilization zebrafish Assay for Snout Malformation (AID 2283637)
# In short: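 Tropical 5D wild-type zebrafish embryos, dechorionated with pronase at 4 hpf, were exposed singly from 6 hpf to 120 hpf statically at 28C in 0.64% DMSO. Snout malformation was scored present/absent by brightfield microscopy, fitted against DMSO.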
# [17] = read-out: alkyl and aryl transferase (GSTA2), GSTA2 (gene 2939); test: CLD_GSTA2_24hr: CellzDirect (CLD) Gene Expression Assay for alkyl and aryl transferase (GSTA2) at 24 hours (AID 2283693)
# In short: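 Primary human hepatocytes (two donor preparations) dosed daily for two days with chemicals at multiple concentrations (vehicle 0.2% DMSO); GSTA2 mRNA at 24 h measured by qNPA chemiluminescence, gain-of-signal versus DMSO.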
# AR (gene 367) = AR (gene 367) (UniProt P10275); test: ACEA_AR_agonist_80hr: ACEA Biosciences xCELLigence Real-Time Cell Analysis on Androgen Receptor Agonism for Proliferation (AID 2283783);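 further: hits increase impedance growth signal above DMSO baseline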
# In short: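 22Rv1 human prostate cancer cells were seeded after preconditioning in assay medium and monitored overnight, then dosed in an eight-point 1:4 dilution series from 100 uM (≤0.5% DMSO). Impedance-based growth was read at 80 h, gain-of-signal versus DMSO.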
# [18] = Tanguay_ZF_120hpf_PFIN_legacy: (Legacy) Oregon State University Tanguay Lab 120 Hour Post-fertilization zebrafish Assay for Pectoral Fin Malformation (AID 2283648);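 further: each larva judged yes or no for fin defect by brightfield with dead larvae skipped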
# In short: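 Tropical 5D wild-type embryos, dechorionated with pronase at 4 hpf, were placed singly in wells at 6 hpf and statically exposed until 120 hpf at 28C, sealed and dark, with 0.64% (vol/vol) final DMSO; pectoral fin malformation scored present/absent.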
# [19] = Tanguay_ZF_120hpf_PE_legacy: (Legacy) Oregon State University Tanguay Lab 120 Hour Post-fertilization zebrafish Assay for Pericardial Edema (AID 2283640);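 on AC50: potency for increased incidence of pericardial edema versus DMSO baseline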
# In short: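 Tropical 5D wild-type zebrafish embryos were exposed statically to 120 hpf at 28C, sealed and foil-covered, in 0.64% DMSO final. Pericardial edema was scored present/absent by brightfield microscopy; dead embryos were not scored.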
smiles,measurement,setting,value
Cn1c(=O)c2[nH]cnc2n(C)c1=O,AC50,[1],inconclusive: 25 µM
OC(O)(C(F)C(O)(O)C(F)(F)F)C(F)(F)F,AC50,[2],inconclusive: 0.693 µM
same,AC50,[3],inconclusive: 0.348 µM
same,outcome,[4],inactive
CC(CN=Cc1ccccc1O)N=Cc1ccccc1O (centres undefined),AC50,[5],inconclusive: 4.36 µM
CCCCOCCOCCOCc1cc2c(cc1CCC)OCO2,AC50,[6],inconclusive: 46.7 µM
same,outcome,[7],inactive
same,AC50,[8],inconclusive: 20 µM
same,AC50,[9],inconclusive: 20 µM
same,AC50,[10],inconclusive: 0.446 µM
same,AC50,[11],inconclusive: 20 µM
same,AC50,[12],inconclusive: 13 µM
same,outcome,[13],inactive
CCCCCCCCCCCCC,AC50,[14],inconclusive: 2.17 µM
O=C(Oc1ccccc1)c1ccc(O)cc1,AC50,[15],active: 166 µM
CC(CO)OC(C)CO (centres undefined) (tested in a mixture with another compound),outcome,[1],inactive
c1ccc(Nc2ccccc2)cc1,AC50,[16],active: 36.6 µM
same,outcome,[7],inactive
same,outcome,[8],inactive
same,AC50,[9],inconclusive: 20 µM
same,AC50,[10],inconclusive: 20 µM
same,outcome,[17],inactive
same,AC50,[11],inconclusive: 20 µM
same,AC50,[12],inconclusive: 20 µM
same,outcome,[13],inactive
COC(=O)[C@H](Cc1ccccc1)NC(=O)[C@@H](N)CC(=O)O (HELM PEPTIDE1{D.F.[CO[*:1]]}$$$$V2.0),AC50,[2],inconclusive: 15 µM
CCCCC[C@H](O)CC(=O)CCc1ccc(O)c(OC)c1,outcome,AR (gene 367),inactive
COc1ccccc1N=Nc1c(S(=O)(=O)O)cc2cc(S(=O)(=O)O)cc(NC(C)=O)c2c1O,AC50,[5],active: 12.2 µM
CCCCCCCC/C=C\CCCCCCCC(=O)OC[C@@H](O)[C@H]1OC[C@H](O)[C@H]1O,outcome,[14],inactive
same,AC50,[18],inconclusive: 1.79 µM
CCN(CC)c1ccc(C(=C2C=CC(=[N+](CC)CC)C=C2)c2ccc(S(=O)(=O)O)cc2S(=O)(=O)[O-])cc1,AC50,AR (gene 367),inconclusive: 4.31 µM
CCCCCCCC[Si](OCC)(OCC)OCC,AC50,[19],inconclusive: 2.06 µM
same,AC50,[18],inconclusive: 201 µM
CC(C)c1ccccc1O,AC50,[1],inconclusive: 13.4 µM
Cc1cc(O)cc(C)c1Cl,AC50,[15],inconclusive: 100 µM
same,outcome,[15],inactive
CC(C)(C)[C@@H](O)[C@@H](Cc1ccc(Cl)cc1)n1cncn1,AC50,[16],active: 10.5 µM
same,AC50,[19],active: 45.9 µM
same,AC50,[8],inconclusive: 37 µM
same,outcome,[10],inactive
same,AC50,[17],inconclusive: 20 µM
same,outcome,[11],inactive
same,AC50,[12],inconclusive: 20 µM
C#C[C@]1(O)CC[C@H]2[C@@H]3CCc4cc(O)ccc4[C@H]3CC[C@@]21C,AC50,[15],inconclusive: 0.000318 µM
Oc1ccc(C(c2ccc(O)cc2)C(Cl)(Cl)Cl)cc1,AC50,[7],inconclusive: 0.21 µM
same,AC50,[8],inconclusive: 0.0049 µM
same,AC50,[9],inconclusive: 0.0833 µM
same,AC50,[10],inconclusive: 0.0846 µM
same,outcome,[17],inactive
same,AC50,[11],inconclusive: 20 µM
same,outcome,[13],inactive
same,outcome,[3],inactive
CCOC(=O)NCCOc1ccc(Oc2ccccc2)cc1,AC50,[7],inconclusive: 0.000395 µM
same,AC50,[9],inconclusive: 20 µM
same,AC50,[17],inconclusive: 20 µM
same,AC50,[12],inconclusive: 20 µM
same,AC50,[13],inconclusive: 20 µM
CCCCOc1ccc(N)cc1,outcome,[5],inactive
c1ccc2scnc2c1,AC50,[2],inconclusive: 0.22 µM
same,AC50,[3],inconclusive: 50.5 µM
same,AC50,[4],inconclusive: 50.5 µM
Oc1ccc2ccccc2c1,outcome,AR (gene 367),inactive
CCCCC[Si](OCC)(OCC)OCC,AC50,AR (gene 367),inconclusive: 2.64 µM
COc1ccc(/C=C/S(=O)(=O)NC(=O)c2ccc(C)cc2Cl)cc1,outcome,[18],inactive
CCc1ccc(O)c(C(C)(C)C)c1,outcome,[6],inactive
same,outcome,[19],inactive
Nc1ccnc(=O)[nH]1,AC50,[14],inconclusive: 7.32 µM
COc1cc(C=O)ccc1O,outcome,[6],inactive
same,AC50,[16],active: 36.6 µM
same,AC50,[18],active: 42.8 µM
CC(=O)CC(c1ccccc1)c1c(O)c2ccccc2oc1=O (centres undefined),AC50,[16],inconclusive: 6.4 µM
same,AC50,[19],inconclusive: 83.6 µM
same,AC50,[4],inconclusive: 0.00326 µM
COc1cc(Cl)c(OC)cc1N,AC50,[14],inconclusive: 0.257 µM

# Four entries from above, as tab-separated lines:
smiles	measurement	setting	value
CCc1ccc(O)c(C(C)(C)C)c1	outcome	[19]	inactive
Nc1ccnc(=O)[nH]1	AC50	[14]	inconclusive: 7.32 µM
COc1cc(C=O)ccc1O	outcome	[6]	inactive
same	AC50	[16]	active: 36.6 µM
